The target of the assay is T1, ANXA7 (construct co-expressed with DFNA5(Flag)) (human) (UniProt P20073).
T1 sequence: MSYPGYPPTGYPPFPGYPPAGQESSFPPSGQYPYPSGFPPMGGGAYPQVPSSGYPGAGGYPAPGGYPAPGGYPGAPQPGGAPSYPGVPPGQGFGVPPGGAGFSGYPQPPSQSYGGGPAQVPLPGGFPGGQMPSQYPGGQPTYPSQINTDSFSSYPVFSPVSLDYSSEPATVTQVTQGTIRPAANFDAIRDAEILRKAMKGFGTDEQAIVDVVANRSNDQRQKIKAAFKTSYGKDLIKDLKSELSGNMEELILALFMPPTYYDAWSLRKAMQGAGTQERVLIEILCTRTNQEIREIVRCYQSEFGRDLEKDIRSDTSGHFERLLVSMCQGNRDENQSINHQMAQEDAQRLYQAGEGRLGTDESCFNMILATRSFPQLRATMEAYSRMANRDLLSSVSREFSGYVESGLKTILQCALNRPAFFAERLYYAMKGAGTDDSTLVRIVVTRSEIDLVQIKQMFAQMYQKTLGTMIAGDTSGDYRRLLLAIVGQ
The assay can be described thus: co-IP.

No constants are given. Whether binding was seen depends on the method and setting. In cells and extracts the contact can be indirect. A result given as binding can be weak or reduced; the word gives no strength. Sequences can lack the tags named with a protein.

Take “Cleaved N-terminal fragment of DFNA5 tagged with internal Flag (human) (domain or fragment)”: the binding entry is reported as “binds”.

These data come from publication doi:10.1101/2021.04.27.441709.
